From PubChem BioAssay AID1307 (SRMLSC, 2008)
In all, about 1,200 compounds went through this assay and fewer than 10 were called active.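 The calls were made as follows: active = inhibition reaching a set limit at one or more tested concentrations; inactive = inhibition under that limit at every dose.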 This is one part of the list. Potency and affinity values are given separately.

Assay: yeast RAM network inhibitors, dose response, S. cerevisiae (AID 1307);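 also: 0% = DMSO vehicle wells and 100% = 10 µM 1-NA-PP1 control; higher inhibition means more yeast growth since RAM block rescues cells from 5-FOA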
Details: S. cerevisiae RAM network URA3 reporter, 5-FOA growth OD615, active compounds read high, yeast express analog-sensitive mutant Cbk1 kinase; at 100 µM unless noted

Max inhibition, inactive:
O=C(CN(Cc1ccccc1F)S(=O)(=O)c1ccc(Cl)cc1)NCCC1=CCCCC1 3.06%
Cc1cc2c(C)ccc(C)c2nc1SCC(=O)c1cccs1 5.59% [at 25 µM]
Cc1ccc(C2(CCNS(=O)(=O)c3ccc(C)cc3)CCOC(C(C)C)C2)cc1 (centres undefined) 2.49% [at 1.563 µM]
Nc1nc(SCC(=O)NCc2ccc(F)cc2)[nH]c(=O)c1NC(=O)c1ccc(Cl)cc1 4.85%
CCOC(=O)c1ccc(NC(=O)COC(=O)c2cccc(Oc3ccccc3)c2)cc1 2.64% [at 50 µM]
O=C(CSc1nnc(SCc2ccc(Cl)cc2)s1)c1ccc2c(c1)OCO2 2.44% [at 25 µM]
O=C(Nc1ccccc1)C1=C[C@H](C2CCCCC2)C[C@H](OCc2ccc(CO)cc2)O1 4.12%
Cn1nc(C(F)(F)F)c(/C=N/OC(=O)c2ccccc2)c1SCc1ccccc1Cl 2.79% [at 50 µM]
COc1ccc(OCCCn2cccc2/C=C2/C(=N)N3OC(C)=CC3=NC2=O)cc1 1.82% [at 3.125 µM]
COc1ccc(C(C)(C)C)cc1NC(=O)COC(=O)c1cc(SC)ccc1Cl 3.84% [at 50 µM]
O=C(/C=C/c1cccc([N+](=O)[O-])c1)NCCSCc1ccc(Cl)cc1Cl 2.82% [at 12.5 µM]
O=C(CCCOc1ccc(Cl)cc1Cl)N/N=C/c1ccccc1 2.38% [at 3.125 µM]
O=[N+]([O-])c1ccc(COc2cccc(CNc3ccc(Br)cc3)c2)cc1 3.95% [at 25 µM]
CCOC(=O)C(C)Sc1cc(CS(=O)(=O)c2ccccc2)nc(-c2ccccc2)n1 (centres undefined) 5.53%
CCCCCOc1ccc(CSc2ncn[nH]2)cc1 1.43% [at 6.25 µM]
COc1ccc(CNC(=O)c2cccc(-c3ccc(C)c4ccccc34)n2)cc1 5.18%
C=CCn1c(COc2ccc3c(c2)CCCC3)nnc1SCC(=O)Nc1cccc(SC)c1 3.16% [at 50 µM]
COc1ccccc1-n1cnc2c(c1=O)c1nc3ccccc3nc1n2-c1ccc(C)cc1 8.35%
COc1cc(-c2nc(-c3cccc(C(F)(F)F)c3)no2)cc(OC)c1OC 1.08% [at 3.125 µM]
O=c1c2ccccc2c(C=NCCc2ccccc2)c(O)n1Cc1ccccc1 4.57%
COC(=O)c1nn(-c2ccccc2)c(Cl)c1/C=N/OCc1ccc(Cl)cc1Cl 2.89% [at 0.782 µM]
COc1ccc(NC(=O)N2CCCC(c3nc(-c4ccc(C(C)C)cc4)no3)C2)cc1 (centres undefined) 1.82% [at 3.125 µM]
CCCCCCCCNC(=O)CC(NS(=O)(=O)c1ccc(NC(C)=O)cc1)C(C)C (centres undefined) 2.68% [at 50 µM]
Cc1cc(C)n(-c2ccc(C(=O)Oc3ccc4c(c3)OCO4)cc2)n1 3.58%
CCn1c(SCc2nc3ccccc3c(=O)[nH]2)nc2ccccc21 1.27% [at 1.563 µM]
O=C(CSc1nc(-c2ccccc2)cs1)Nc1ccccc1[N+](=O)[O-] 2.56% [at 1.563 µM]
Cc1cccc(N2CCN(C(=O)c3cnn4c(C(F)F)cc(-c5ccccc5)nc34)CC2)c1C 6.71%
CCc1ccc(N/C(SCc2cccc(F)c2)=C(/C#N)C(=O)NCc2ccco2)cc1 2.59%
CC(C)CNS(=O)(=O)c1ccc(CCC(=O)Nc2cc(Cl)ccc2Oc2ccccc2)cc1 4.87% [at 25 µM]
Cc1ccccc1OCCC(=O)Nc1cccc(S(=O)(=O)Nc2ccccc2Cl)c1 2.67% [at 0.196 µM]
N#C/C(=C\c1c[nH]c2ccccc12)C(=O)Nc1ncc(Cc2ccc(Cl)cc2Cl)s1 9.09%
O=C(CC(Nc1ccccc1Cl)C(=O)OCC(=O)c1cccs1)c1ccccc1 (centres undefined) 3.84% [at 3.125 µM]
COc1cc2c(=O)n(Cc3ccco3)c(=O)n(CC(=O)c3ccc(Br)cc3)c2cc1OC 3.72% [at 0.196 µM]
O=C(c1cccc(Cl)c1)N1CCCC(c2ccc(Cl)cc2)=N1 2.26% [at 6.25 µM]
O=C(/C=C/c1ccc2c(c1)OCCCO2)c1ccc2ccccc2c1O 5.19%
O=C(NCc1ccccc1)c1cccc(COc2ccc3c(c2)CCC3)c1 9.25%
O=C(CSc1ccc(Cl)cc1)N1CCN(c2ccc(Cl)cc2[N+](=O)[O-])CC1 2.64% [at 50 µM]
CCCC(c1nnnn1Cc1ccco1)N1CCN(c2cc(Cl)ccc2C)CC1 (centres undefined) 8.35%
COc1ccc(Cn2nnnc2C(C(C)C)N(Cc2ccco2)Cc2cccs2)cc1 (centres undefined) 2.82%
CCCOc1ccc(N2C(=O)CC(N(CCc3ccccc3)C(=O)c3ccccc3)C2=O)cc1 (centres undefined) 3.2% [at 1.563 µM]
C=CCc1cccc(/C=N/NC(=O)C(C)Nc2ccc(C)cc2)c1O (centres undefined) 2.46% [at 0.782 µM]
O=C(c1cccs1)N(CC1CCCO1)c1nc(-c2ccccc2)cs1 (centres undefined) 2.67% [at 3.125 µM]
CCCCNS(=O)(=O)c1ccc(NC(=O)C(Sc2ccccc2)c2ccccc2)cc1 (centres undefined) 2.87% [at 3.125 µM]
COc1ccc(CCN(Cc2cccs2)S(=O)(=O)c2ccc(C(=O)O)cc2)cc1OC 5.39%
C=CCSC1=N/C(=C\c2cc(OC)c3c(c2)OCO3)C(=O)S1 3.36% [at 3.125 µM]
CC1CCCN(C(=O)C(C)Sc2nc(-c3ccccc3)cc(C(F)(F)F)n2)C1 (centres undefined) 3.6% [at 25 µM]
COc1cccc(CN(Cc2ccco2)C(c2ccc(F)cc2)c2nnnn2C(C)(C)C)c1 (centres undefined) 5.18%
Cc1ccc(S(=O)(=O)N2CCC(=O)N(C(COCc3ccc(C(F)(F)F)cc3)C(C)C)CC2)cc1 (centres undefined) 3.08% [at 1.563 µM]
CCOc1cc(C2NN=C(c3ccccc3)S2)ccc1OCc1ccc(F)cc1 (centres undefined) 3.88%

Quoted at random: 2 entries already listed, in no set order.
Max inhibition, inactive:
O=C(CC(Nc1ccccc1Cl)C(=O)OCC(=O)c1cccs1)c1ccccc1 (centres undefined) 3.84% [at 3.125 µM]
N#C/C(=C\c1c[nH]c2ccccc12)C(=O)Nc1ncc(Cc2ccc(Cl)cc2Cl)s1 9.09%
